Chains of the proteins cited; added tags and fusions are not shown. Lines headed by an entry give the natural chain unless they say otherwise; changes in a name come on top.
UniProt C7C422: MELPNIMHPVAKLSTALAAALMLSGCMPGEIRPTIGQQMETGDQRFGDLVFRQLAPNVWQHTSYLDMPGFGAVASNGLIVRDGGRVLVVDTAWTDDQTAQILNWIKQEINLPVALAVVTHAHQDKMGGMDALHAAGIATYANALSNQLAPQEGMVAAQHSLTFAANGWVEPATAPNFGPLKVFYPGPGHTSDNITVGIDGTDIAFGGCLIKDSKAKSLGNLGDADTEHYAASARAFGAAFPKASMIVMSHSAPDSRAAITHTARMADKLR

The whole screen tested about 6,900 compounds, of which fewer than 10 were called active. The call rests on the fitted dose curve; in most records, active means well fitted curve in the direction sought with a large enough effect; inconclusive means small, poorly fitted or top-dose-only effect, or another doubt; inactive means no such curve, though single readings can be large or run the other way. Some of the results follow.
These compounds were tested against Metallo-beta-lactamase type 2 (Klebsiella pneumoniae) (UniProt C7C422) (assay: qHTS to identify inhibitors of the New Delhi Metallo-beta-lactamase (NDM): primary screen against the NCATS Gemini Collection). Conditions: NDM-1 enzyme, meropenem hydrolysis, absorbance 300 nm; at 38.4 µM (top of the series) unless noted.
Outline: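 Meropenem hydrolysis (50 uM final) by 2 nM NDM-1 read as 300 nm absorbance after 30 min, following >30 min compound–enzyme preincubation in HEPES pH 7.0 with 1 uM ZnSO4 and 0.01% Tween20.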
`CC(=O)c1ccc(C(=O)N[C@H]2COC[C@H]2Cc2cc(C)no2)s1` was tested, and the activity % (negative = inhibition) was inactive: 19.4%. In the case of `O=C(NCCC1=CCCCC1)c1c(-c2cncnc2)cc(=O)n2c1CCCC2`, the activity % (negative = inhibition) is reported as inactive: 4.8%. In the case of `C[C@@H]1CN(C(=O)CN2CCN(c3ncccn3)CC2)C[C@@]1(O)C1CCC1`, the activity % (negative = inhibition) is reported as inactive: 14.1%. In the case of `CC(C)n1cc2cc(C(=O)O)sc2c1`, the activity % (negative = inhibition) is reported as inactive: 1.68%. With `CC(C)COC(=O)N1CCCn2nc(-c3nc4ccccc4n3C)cc2C1` the activity % (negative = inhibition) was inactive: 10.1%. For `O=C1NC2(CCN(Cc3cncs3)C2)OCc2ccccc21` (centres undefined), the activity % (negative = inhibition) was inactive: 1.82% [at 57.5 µM]. In the case of `CCNC(=O)N1CCC(NC(=O)c2cccc(CCC(C)(C)O)c2)CC1`, the activity % (negative = inhibition) is reported as inactive: 0.933%. With `Cc1nccn1CCCC(=O)N1CC[C@](C)(O)[C@H](C)C1` the activity % (negative = inhibition) was inactive: -4.47%. With `CC(C)NC(=O)N1CCN(S(C)(=O)=O)[C@@H](C(=O)N[C@H](Cc2c[nH]c3ccccc23)C(N)=O)C1` the activity % (negative = inhibition) was inactive: 1.44%. `O=C(CN1C(=O)NC2(CCCCC2)C1=O)Nc1ccc2c(c1)OCCO2` was tested, and the activity % (negative = inhibition) was inactive: 5.44%. With `Cc1cc(CN(C)C(=O)c2cc(COc3ccc(F)cc3F)on2)n[nH]1` the activity % (negative = inhibition) was inactive: 0.31%. For `CN(C)c1ccc(C(=O)N[C@H]2CC(C)(C)[C@@H]3C[C@@](C)(O)CC[C@]23CCC(=O)NC2CC2)cc1`, the activity % (negative = inhibition) was inactive: 14.2%. In the case of `CC1=C(C(=O)N2CCC(CCC(=O)Nc3ccc4c(c3)OCCO4)CC2)OCCO1`, the activity % (negative = inhibition) is reported as inactive: 2.33%. In the case of `COc1ccc(-c2ccnc(N[C@H]3CO[C@H]4[C@@H]3OC[C@@H]4NC(=O)Nc3ccc(C(C)=O)cc3)n2)cc1`, the activity % (negative = inhibition) is reported as inactive: 24.9%. `O=C([C@H]1O[C@H](CCN2CCC(CO)CC2)CC[C@@H]1O)N1CCN(c2ccccc2)CC1` was tested, and the activity % (negative = inhibition) was inactive: 44.8% [at 57.5 µM]. With `CCCOCCc1nc2c([nH]1)CC(C)(C)CNC2=O` the activity % (negative = inhibition) was inactive: 2.5%. With `CC(NCc1cn(CCC(N)=O)c2ccccc12)c1ccccc1-n1cccn1` (centres undefined) the activity % (negative = inhibition) was inactive: 4.83%. With `CS(=O)(=O)N1CCc2ccc(C(=O)NCc3ccc(OC(F)(F)F)cc3)cc21` the activity % (negative = inhibition) was inactive: 1.01%. For `CCOc1cccc(CN2CC(C(=O)NCc3ccncc3)C3(CCOCC3)C2)c1` (centres undefined), the activity % (negative = inhibition) was inactive: 0.0153%. `CN(C(=O)c1ccc(Cl)nc1)C1CCCc2ccccc21` (centres undefined) was tested, and the activity % (negative = inhibition) was inactive: 0.052% [at 57.5 µM]. In the case of `COc1cccc(C(CC(=O)NCC(C)C)c2c[nH]c3ccccc23)c1` (centres undefined), the activity % (negative = inhibition) is reported as inactive: -0.66%. For `Cc1cc(C)n(-c2cccc(CN(C)C(=O)Cn3nnnc3CN3CCOCC3)c2)n1`, the activity % (negative = inhibition) was inactive: 8.71%. For `COCCn1c(C)cnc1CCNC(=O)Cc1cccc(F)c1`, the activity % (negative = inhibition) was inactive: -8.02%. For `O=C1NCCOCCN(C(=O)Nc2ccc3c(c2)OCCO3)[C@@H]2CCCC[C@H]12`, the activity % (negative = inhibition) was inactive: 0.0197%. For `COc1ccc(CCNC(=O)C(C)C2CCOCC2)cc1OC` (centres undefined), the activity % (negative = inhibition) was inactive: -1.32%. With `CC(=O)NC1CCN(C(=O)c2coc(COc3cccc(C(F)(F)F)c3)n2)C1` (centres undefined) the activity % (negative = inhibition) was inactive: -1.01%. `CC(C)=CCC1(CO)CCCN(Cc2csc(C)n2)C1` (centres undefined) was tested, and the activity % (negative = inhibition) was inactive: 5.23%. For `CC[C@H]1CN(C(=O)N2CCOCC2)CC[C@H]1CC(=O)NCCOC`, the activity % (negative = inhibition) was inactive: -9.61% [at 57.5 µM]. For `C[S+](=O)([O-])N1CC2(CCCN2CC2CCCCC2)Cc2ccccc21` (centres undefined), the activity % (negative = inhibition) was inactive: 60.9%. For `Cc1ccccc1-c1nccc2c(=O)cc(C3=CCOCC3)oc12`, the activity % (negative = inhibition) was inactive: 15.4% [at 57.5 µM]. For `O=C(NCCN1CCCC1)C1CCN(c2cnn(CC3CC3)c(=O)c2)C1` (centres undefined), the activity % (negative = inhibition) was inactive: 8.77%. With `CN(Cc1ccccc1)Cc1cc(C[C@H]2CNCC[C@H]2CC(=O)NCc2cccs2)no1` the activity % (negative = inhibition) was inactive: 3.64%. `O=C(NC1CN(c2ccnc3ccnn23)C1)c1ccc(Cl)nc1` was tested, and the activity % (negative = inhibition) was inactive: -1.91%. With `Cn1cccc1CN1CCC(N2CCNC2=O)CC1` the activity % (negative = inhibition) was inactive: -0.0953% [at 57.5 µM]. In the case of `CSCCC(=O)N1CCc2[nH]nc(-c3ccc(C(F)(F)F)cc3)c2C1`, the activity % (negative = inhibition) is reported as inactive: -0.0331%. With `CCN(CCc1nc2ccc(C)cc2[nH]1)C(=O)c1ccccc1C1CCNC1` (centres undefined) the activity % (negative = inhibition) was inactive: 24.5%. In the case of `CCc1cc(=O)n(CC(=O)NCc2ccc(OC)c(OC)c2)c(-c2ccccc2)n1`, the activity % (negative = inhibition) is reported as inactive: 52.1%. For `COc1ccc(F)cc1-c1ccc(CN2CCC(NC(=O)c3ccc(Cl)cc3)C2)cc1` (centres undefined), the activity % (negative = inhibition) was inactive: -3.12%. For `Cc1noc(C)c1Cc1ccc(C(=O)N2CCCCCCNC(=O)[C@@H]3CCCC[C@@H]32)o1`, the activity % (negative = inhibition) was inactive: 2.9%. In the case of `Fc1ccccc1CN1CCOC[C@H](Oc2cccnc2)C1`, the activity % (negative = inhibition) is reported as inactive: -5.58% [at 57.5 µM]. `COc1cc(SC)ccc1C(=O)N[C@H]1CCN2C(=O)[C@@H](CC(=O)O)NC(=O)[C@@H]2C1` was tested, and the activity % (negative = inhibition) was inactive: 9.12% [at 57.5 µM]. With `CCNC(=O)[C@@H]1C[C@H](NC(=O)c2ccc(CO)o2)CN1Cc1nccs1` the activity % (negative = inhibition) was inactive: 28.6%. For `CC1=C(C(=O)Nc2ccccc2)C(c2cc(C)ccc2C)N2C(CC(=O)NC(C)C)=CSC2=N1` (centres undefined), the activity % (negative = inhibition) was inactive: 12.5%. With `N#Cc1cccc(N2CCN(Cc3ccc(F)c(Cl)c3F)CC2)n1` the activity % (negative = inhibition) was inactive: 1.43%. `Cc1noc(C)c1-c1cc(-c2cccc3cc[nH]c23)cn2cncc12` was tested, and the activity % (negative = inhibition) was inactive: 11.6% [at 57.5 µM]. `CCC(C)(C)C(=O)N1CCC(N2C(=O)CCC2C(=O)NC(C)C)CC1` (centres undefined) was tested, and the activity % (negative = inhibition) was inactive: 5.87%. `CN(C)[C@@H]1CN(C(=O)CCc2ccccc2)C[C@H]1CO` was tested, and the activity % (negative = inhibition) was inactive: 50.7%. `O=C(CCCc1nc2ccccc2s1)N1CCc2nc3cc(-c4ccccc4)[nH]n3c(=O)c2C1` was tested, and the activity % (negative = inhibition) was inactive: 60.1%. `OCCN1CCN(c2ccc(-c3nc(-c4cccc(C(F)(F)F)c4)no3)cn2)CC1` was tested, and the activity % (negative = inhibition) was inactive: 13.3%. In the case of `Cc1nnc([C@H]2CCN(Cc3ncc[nH]3)C2)o1`, the activity % (negative = inhibition) is reported as inactive: -0.788% [at 77.1 µM]. With `Cc1c(C(=O)N(C)Cc2cc(-c3cccnc3)no2)oc2c(F)cccc12` the activity % (negative = inhibition) was inactive: 2.92%. In the case of `COc1cccc(N2C(=O)NC(=NC3CCCCC3)C23CCCN([S+](=O)([O-])c2cccs2)C3)c1` (centres undefined), the activity % (negative = inhibition) is reported as inactive: -1.53%. For `O=C(c1ccsc1)N1CCC2(CC1)CN(c1ccncn1)CC2CO` (centres undefined), the activity % (negative = inhibition) was inactive: 0.264%. In the case of `O=C1CCCCC(Cc2cccnc2)(C(=O)NCC2CC2)N1` (centres undefined), the activity % (negative = inhibition) is reported as inactive: 0.264%. For `COCCOCc1nc(C2CCCN2C(=O)Cc2cccc(F)c2)no1` (centres undefined), the activity % (negative = inhibition) was inactive: -2.95%. `O[C@H]1CC[C@@H](Cc2cc(-c3ccc(F)cc3)on2)O[C@@H]1CNC1CCCCC1` was tested, and the activity % (negative = inhibition) was inactive: -3.81% [at 57.5 µM]. For `Cc1[nH]c2ccccc2c1CN1CCc2nc(N3CCN(C)CC3)[nH]c(=O)c2CC1`, the activity % (negative = inhibition) was inactive: -0.788%. `N#Cc1cccc(CN2CC[C@H](c3nc4ccccc4o3)C2)c1` was tested, and the activity % (negative = inhibition) was inactive: -0.362% [at 57.5 µM]. With `COCc1nc(NCCCN2CCOCC2)cc(C2CC(N)C2)n1` (centres undefined) the activity % (negative = inhibition) was inactive: 2.39%. For `c1cc(-c2nc(C3CCOC3)nn2C2CCCCC2)co1` (centres undefined), the activity % (negative = inhibition) was inactive: 17.7%. `COc1ccc(-c2nc3cc(C(=O)NCC(C)C)ccc3o2)cn1` was tested, and the activity % (negative = inhibition) was inactive: 4.69% [at 57.5 µM]. For `COC1C(=O)N(CC2CC2)C12CCN(S(=O)(=O)c1ccc3c(c1)OCCO3)CC2` (centres undefined), the activity % (negative = inhibition) was inactive: -0.845%. For `CC(C)C1=NOC2(CCCN(C(=O)c3ccccn3)C2)C1` (centres undefined), the activity % (negative = inhibition) was inactive: 2.47% [at 57.5 µM]. With `O=C(c1cnc2c(c1)CCCC2)N1CCCn2nc(CO)cc2C1` the activity % (negative = inhibition) was inactive: 6.35%. With `CN(Cc1cccc(C(F)(F)F)c1)Cc1nc(-c2ccccc2)no1` the activity % (negative = inhibition) was inactive: 17.1%. With `O=C(NC1CCCCCC1)c1nnn2cc(-c3ccccc3)[nH]c(=O)c12` the activity % (negative = inhibition) was inactive: 8.42%. For `O=C1CCN(Cc2cccc(F)c2)CCCCCCN1`, the activity % (negative = inhibition) was inactive: 2.42%. In the case of `Cc1nnc(-c2cc(-c3cnn(C)c3)ccn2)n1-c1ccccc1`, the activity % (negative = inhibition) is reported as inactive: 3.31% [at 57.5 µM]. With `C=CCCC(=O)N1c2cccc3c2[C@@H](C[C@H]1C(N)=O)CN(c1ccccc1)C3=O` the activity % (negative = inhibition) was inactive: 8.38% [at 16.1 µM]. For `CC1(C(=O)N2CCC(c3ccccc3)CC2)CCc2cnc(Nc3ccncc3)nc21` (centres undefined), the activity % (negative = inhibition) was inactive: 24.2% [at 57.5 µM]. For `CCn1c(CN2CCN(c3nc(C)cnc3C)CC2)nnc1C1CC(N)C1` (centres undefined), the activity % (negative = inhibition) was inactive: -4.23%. With `COC(=O)[C@H](CC1CCCCC1)NC(=O)[C@@H]1CN(C(=O)c2ccc(N(C)C)cc2)CCN1C(C)=O` the activity % (negative = inhibition) was inactive: 11.2%. For `O=C(NCCN1C(=O)C2(CCCCC2)C1c1ccccc1)NCc1ccccc1` (centres undefined), the activity % (negative = inhibition) was inactive: -0.527%. For `CCc1noc(-c2cn(C3CCN(C(=O)COc4ccccc4)C3)nn2)n1` (centres undefined), the activity % (negative = inhibition) was inactive: 3.62%. `COc1cccc([C@@H]2CCN(Cc3cn[nH]c3C(=O)O)C[C@H]2O)c1` was tested, and the activity % (negative = inhibition) was inactive: 0.625%. With `COc1cccc(CN2CC[C@@](O)(C3CC3)[C@H](C)C2)c1OC` the activity % (negative = inhibition) was inactive: 2.38%. With `Cc1cccc(O[C@H]2COCCN(c3nc4ccccc4o3)C2)n1` the activity % (negative = inhibition) was inactive: 14.5% [at 57.5 µM]. In the case of `c1ccc(CNc2ncc(-c3ccc(N4CCOCC4)cc3)c3c2OCC3)cc1`, the activity % (negative = inhibition) is reported as inactive: 4.66% [at 57.5 µM]. With `COc1cccc(S(=O)(=O)N2CCC(c3noc(-c4ccccn4)n3)C2)c1` (centres undefined) the activity % (negative = inhibition) was inactive: -5.96%. In the case of `C[C@@]12CO[C@@H](Cc3ccccc3)O[C@@H]1CC[C@]1(C)C2CC[C@@H](O)[C@H]1CC(=O)NCc1cc(F)cc(F)c1` (some centres undefined), the activity % (negative = inhibition) is reported as inactive: 2.51%. `Cc1nnc(N2CCC3(CCC(=O)N(CCCN(C)C)C3)CC2)c2ccccc12` was tested, and the activity % (negative = inhibition) was inactive: -0.416%. With `CNC(=O)C1C(=O)NCC12CCN(C(=O)c1ccc(C(C)(C)C)cc1)CC2` (centres undefined) the activity % (negative = inhibition) was inactive: 1.45%. With `CN(C)c1cc(N2CCCC(NC(=O)c3cccnc3)C2)ncn1` (centres undefined) the activity % (negative = inhibition) was inactive: 8.65%. For `COc1cccc(CN2CC3(C2)NC(=O)c2ccccc2O3)c1`, the activity % (negative = inhibition) was inactive: 1.79% [at 57.5 µM].
Further: % of control where 0% means no effect.
